Measured values published in publication PMC12816671.
Construct, isoform or probe ends are uncertain for at least one entry.

Target: Ku70 SAP domain WT (Homo sapiens) (UniProt P12956)
Assay: EMSA
Details: apparent KD, 105 mM KCl; SAP EMSA: 105 mM KCl (400 bp) or 46 mM KCl (153 bp), 3 mM Tris-HCl pH 7.5, 0.1 mM EDTA, 3-4% glycerol, 15 min room temp, agarose (0.8% or 1.5%); recombinant protein; residues 539-609; probe letters rebuilt from the primers and the genome

ACTTGACTCATGATTTCTTACCTATTAGTGGTTGAACAGCATCGGACTCAGATAGTAATCCACGCTCTTTTAAAATGTCAACAAGAGAATCTCTACCATGAACAAAATGTGACTCATATCTAAACCAGTCCTTGACGAACGTGCCAAGCATATTAAGCCACTTCTCCTCATCCAACGCGTCAGTTTTTGACAGAATCGTTAGTTGATGGCGAAAGGTCGCAAAGTAAGAGCTTCTCGAGCTGCGCAAGGATAGGTCGAATTTTCTCATTTTCCGCCAGCAGTCCACTTCGATTTAATTCGTAAACAAGCAGTAGTAATTCCTGCTTTATCAAGATAATTTTTCGACTCATCAGAAATATCCGAAAGTGTTAACTTCTGCGTCATGGAAGCGATAAAACTC (double strand) [400 bp PhiX174 fragment]
binding result: binds
